Measured values as given in PMC8127962.
Results are given in words; binding and its absence hold for the method and conditions named. In cells and extracts the contact can be indirect. A result given as binding can be weak or reduced; the word gives no strength.

How the values were obtained:
[1] = target: FLAG-tagged EML4-ALK variant 1, wild-type (human); experiment: co-IP; anti-FLAG (M2 agarose-FLAG beads, overnight at 4°C) of FLAG-tagged fusion or mutant from transfected HEK293T cells, 48 h after transfection, serum-starved 24 h; lysis buffer 0.5% NP-40, 150 mM NaCl, 50 mM TrisCl pH 7.5; washed three times; western blotting of partners
[2] = target: FLAG-tagged CCDC6-RET, wild-type (human); experiment: as above

Row | binding [1] | binding [2] | Binder
1 | binds | binds | SHC1 (protein, UniProt P29353 1-583) MDLLPPKPKYNPLRNESLSSLEEGASGSTPPEELPSPSASSLGPILPPLPGDDSPTTLCSFFPRMSNLRLANPAGGRPGSKGEPGRAADDGEGIVGAAMPDSGPLPLLQDMNKLSGGGGRRTRVEGGQLGGEEWTRHGSFVNKPTRGWLHPNDKVMGPGVSYLVRYMGCVEVLQSMRALDFNTRTQVTREAISLVCEAVPGAKGATRRRKPCSRPLSSILGRSNLKFAGMPITLTVSTSSLNLMAADCKQIIANHHMQSISFASGGDPDTAEYVAYVAKDPVNQRACHILECPEGLAQDVISTIGQAFELRFKQYLRNPPKLVTPHDRMAGFDGSAWDEEEEEPPDHQYYNDFPGKEPPLGGVVDMRLREGAAPGAARPTAPNAQTPSHLGATLPVGQPVGGDPEVRKQMPPPPPCPGRELFDDPSYVNVQNLDKARQAVGGAGPPNPAINGSAPRDLFDMKPFEDALRVPPPPQSVSMAEQLRGEPWFHGKLSRREAEALLQLNGDFLVRESTTTPGQYVLTGLQSGQPKHLLLVDPEGVVRTKDHRFESVSHLISYHMDNHLPIISAGSELCLQQPVERKL
2 | binds | binds | PLCγ1 (enzyme, UniProt P19174 1-1290) MAGAASPCANGCGPGAPSDAEVLHLCRSLEVGTVMTLFYSKKSQRPERKTFQVKLETRQITWSRGADKIEGAIDIREIKEIRPGKTSRDFDRYQEDPAFRPDQSHCFVILYGMEFRLKTLSLQATSEDEVNMWIKGLTWLMEDTLQAPTPLQIERWLRKQFYSVDRNREDRISAKDLKNMLSQVNYRVPNMRFLRERLTDLEQRSGDITYGQFAQLYRSLMYSAQKTMDLPFLEASTLRAGERPELCRVSLPEFQQFLLDYQGELWAVDRLQVQEFMLSFLRDPLREIEEPYFFLDEFVTFLFSKENSVWNSQLDAVCPDTMNNPLSHYWISSSHNTYLTGDQFSSESSLEAYARCLRMGCRCIELDCWDGPDGMPVIYHGHTLTTKIKFSDVLHTIKEHAFVASEYPVILSIEDHCSIAQQRNMAQYFKKVLGDTLLTKPVEISADGLPSPNQLKRKILIKHKKLAEGSAYEEVPTSMMYSENDISNSIKNGILYLEDPVNHEWYPHYFVLTSSKIYYSEETSSDQGNEDEEEPKEVSSSTELHSNEKWFHGKLGAGRDGRHIAERLLTEYCIETGAPDGSFLVRESETFVGDYTLSFWRNGKVQHCRIHSRQDAGTPKFFLTDNLVFDSLYDLITHYQQVPLRCNEFEMRLSEPVPQTNAHESKEWYHASLTRAQAEHMLMRVPRDGAFLVRKRNEPNSYAISFRAEGKIKHCRVQQEGQTVMLGNSEFDSLVDLISYYEKHPLYRKMKLRYPINEEALEKIGTAEPDYGALYEGRNPGFYVEANPMPTFKCAVKALFDYKAQREDELTFIKSAIIQNVEKQEGGWWRGDYGGKKQLWFPSNYVEEMVNPVALEPEREHLDENSPLGDLLRGVLDVPACQIAIRPEGKNNRLFVFSISMASVAHWSLDVAADSQEELQDWVKKIREVAQTADARLTEGKIMERRKKIALELSELVVYCRPVPFDEEKIGTERACYRDMSSFPETKAEKYVNKAKGKKFLQYNRLQLSRIYPKGQRLDSSNYDPLPMWICGSQLVALNFQTPDKPMQMNQALFMTGRHCGYVLQPSTMRDEAFDPFDKSSLRGLEPCAISIEVLGARHLPKNGRGIVCPFVEIEVAGAEYDSTKQKTEFVVDNGLNPVWPAKPFHFQISNPEFAFLRFVVYEEDMFSDQNFLAQATFPVKGLKTGYRAVPLKNNYSEDLELASLLIKIDIFPAKENGDLSPFSGTSLRERGSDASGQLFHGRAREGSFESRYQQPFEDFRISQEHLADHFDSRERRAPRRTRVNGDNRL
